Measured values as given in the supplement of paper PMC6078165.
Values are relative to the signal before dosing, not to a vehicle control; the signal also falls without drug.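 Fibroblast labels denote human fibroblasts, mainly primary ones from uterus (C12385, HUF), lung (H6013), bone (Hs27A), adrenal (HADF) and skin (WS1), plus mammary HMF and breast cancer-associated Hs343T. Cancer cells are basal-like or mesenchymal-like triple-negative breast cancer lines. A hit is a response shift exceeding 3x replicate standard deviation. The tissue of the other fibroblasts is not given here.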

Tested on: MDAMB231
Assay: relative JC-1 red fluorescence (viability) vs pre-drug, coculture with fibroblast (fraction); higher = more viable cancer cells
Experimental: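 JC-1 labelled TNBC cells cocultured 1:1 (1,500 cells each) with CellTrace Violet stained primary or stromal fibroblasts in 384-well plates in FluoroBrite medium, treated with one of 42 anticancer drugs at 0.1, 1, 10 or 100 uM. JC-1 red fluorescence (mitochondrial integrity in cancer cells only) was read by plate reader every 8 h for 72 h. Values are normalised to each well's pre-drug value. The stock of one drug was tenfold lower, so its dose labels may be too high.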

COc1cc([C@@H]2c3cc4c(cc3[C@@H](O[C@@H]3O[C@@H]5CO[C@@H](C)O[C@H]5[C@H](O)[C@H]3O)[C@H]3COC(=O)[C@H]23)OCO4)cc(OC)c1O [Etoposide]
relative JC-1 red fluorescence
Settings	8 h	16 h	24 h	32 h	40 h	48 h	56 h	64 h	72 h
0.1 µM, coculture fibroblast: C12385	0.765	0.697	0.697	0.622	0.57	0.536	0.504	0.519	0.505
0.1 µM, coculture fibroblast: H6013	0.901	0.821	0.768	0.741	0.701	0.667	0.639	0.627	0.59
0.1 µM, coculture fibroblast: H6019	0.751	0.693	0.689	0.664	0.627	0.632	0.598	0.602	0.571
0.1 µM, coculture fibroblast: H6076	0.793	0.72	0.671	0.646	0.625	0.592	0.584	0.576	0.585
0.1 µM, coculture fibroblast: H6231	0.883	0.793	0.745	0.695	0.651	0.617	0.59	0.584	0.569
0.1 µM, coculture fibroblast: HADF	0.8618	0.801	0.763	0.721	0.692	0.651	0.631	0.619	0.582
0.1 µM, coculture fibroblast: HCFa	0.8709	0.802	0.751	0.696	0.6526	0.62	0.589	0.561	0.517
0.1 µM, coculture fibroblast: HCPF	0.841	0.7491	0.689	0.6512	0.6046	0.569	0.539	0.523	0.512
0.1 µM, coculture fibroblast: HHSteC	0.88	0.846	0.798	0.74	0.694	0.667	0.62	0.606	0.57
0.1 µM, coculture fibroblast: HMF	0.8279	0.7447	0.686	0.644	0.597	0.557	0.524	0.517	0.506
0.1 µM, coculture fibroblast: HPFa	0.9276	0.8955	0.84	0.7745	0.74431	0.7	0.635	0.591	0.531
0.1 µM, coculture fibroblast: HUF	0.836	0.738	0.759	0.644	0.583	0.571	0.528	0.532	0.52
0.1 µM, coculture fibroblast: Hs5	0.836	0.775	0.726	0.675	0.639	0.585	0.554	0.533	0.512
0.1 µM, coculture fibroblast: Hs27A	0.88289	0.848	0.811	0.787	0.74	0.673	0.669	0.651	0.601
0.1 µM, coculture fibroblast: Hs343T	0.8888	0.81	0.742	0.702	0.638	0.592	0.557	0.531	0.517
0.1 µM, coculture fibroblast: WS1	0.735	0.663	0.656	0.573	0.535	0.514	0.477	0.491	0.481
1 µM, coculture fibroblast: C12385	0.763	0.696	0.724	0.641	0.556	0.53	0.508	0.524	0.517
1 µM, coculture fibroblast: H6013	0.888	0.839	0.801	0.78	0.748	0.741	0.708	0.694	0.645
1 µM, coculture fibroblast: H6019	0.745	0.68	0.666	0.637	0.592	0.578	0.533	0.524	0.493
1 µM, coculture fibroblast: H6076	0.861	0.793	0.762	0.737	0.695	0.661	0.645	0.622	0.615
1 µM, coculture fibroblast: H6231	0.875	0.788	0.723	0.689	0.638	0.606	0.568	0.553	0.531
1 µM, coculture fibroblast: HADF	0.844	0.8351	0.776	0.73	0.7088	0.6902	0.675	0.661	0.627
1 µM, coculture fibroblast: HCFa	0.865	0.8143	0.784	0.7447	0.705	0.663	0.617	0.583	0.531
1 µM, coculture fibroblast: HCPF	0.812	0.716	0.66	0.637	0.58	0.548	0.527	0.511	0.493
1 µM, coculture fibroblast: HHSteC	0.875	0.8225	0.782	0.746	0.712	0.697	0.6547	0.639	0.593
1 µM, coculture fibroblast: HMF	0.863	0.785	0.734	0.703	0.657	0.624	0.598	0.589	0.577
1 µM, coculture fibroblast: HPFa	0.904	0.841	0.7946	0.7439	0.72	0.69	0.64	0.606	0.553
1 µM, coculture fibroblast: HUF	0.852	0.751	0.746	0.668	0.608	0.593	0.555	0.552	0.535
1 µM, coculture fibroblast: Hs5	0.834	0.757	0.696	0.639	0.6	0.536	0.513	0.498	0.486
1 µM, coculture fibroblast: Hs27A	0.859	0.814	0.7827	0.758	0.701	0.663	0.654	0.636	0.594
1 µM, coculture fibroblast: Hs343T	0.8129	0.7288	0.68859	0.643	0.596	0.5597	0.515	0.506	0.484
1 µM, coculture fibroblast: WS1	0.704	0.639	0.633	0.5469	0.5047	0.4877	0.4638	0.482	0.4771
10 µM, coculture fibroblast: C12385	0.7662	0.713	0.681	0.622	0.578	0.564	0.518	0.533	0.518
10 µM, coculture fibroblast: H6013	0.9	0.846	0.811	0.785	0.727	0.699	0.664	0.621	0.5775
10 µM, coculture fibroblast: H6019	0.748	0.695	0.676	0.657	0.621	0.617	0.576	0.588	0.564
10 µM, coculture fibroblast: H6076	0.8591	0.785	0.735	0.707	0.68	0.641	0.618	0.609	0.625
10 µM, coculture fibroblast: H6231	0.9724	0.912	0.857	0.801	0.745	0.696	0.654	0.634	0.604
10 µM, coculture fibroblast: HADF	0.907	0.902	0.865	0.829	0.776	0.715	0.677	0.642	0.5763
10 µM, coculture fibroblast: HCFa	0.893	0.844	0.819	0.79	0.741	0.685	0.642	0.61	0.555
10 µM, coculture fibroblast: HCPF	0.913	0.808	0.737	0.697	0.644	0.602	0.554	0.53	0.505
10 µM, coculture fibroblast: HHSteC	0.894	0.868	0.829	0.783	0.749	0.729	0.677	0.66	0.61
10 µM, coculture fibroblast: HMF	0.895	0.832	0.772	0.724	0.6757	0.625	0.589	0.574	0.553
10 µM, coculture fibroblast: HPFa	0.9224	0.886	0.8213	0.774	0.7489	0.702	0.641	0.606	0.554
10 µM, coculture fibroblast: HUF	0.814	0.721	0.741	0.63	0.582	0.567	0.533	0.532	0.521
10 µM, coculture fibroblast: Hs5	0.846	0.7983	0.7591	0.7118	0.675	0.625	0.602	0.588	0.592
10 µM, coculture fibroblast: Hs27A	0.9014	0.83	0.793	0.771	0.72	0.655	0.646	0.629	0.588
10 µM, coculture fibroblast: Hs343T	0.858	0.766	0.693	0.654	0.6	0.547	0.501	0.487	0.467
10 µM, coculture fibroblast: WS1	0.729	0.68	0.622	0.6	0.55	0.521	0.474	0.472	0.45
100 µM, coculture fibroblast: C12385	0.756	0.764	0.67	0.7059	0.646	0.622	0.58	0.574	0.56
100 µM, coculture fibroblast: H6013	0.907	0.885	0.855	0.85	0.802	0.769	0.75	0.714	0.668
100 µM, coculture fibroblast: H6019	0.7578	0.723	0.733	0.746	0.722	0.728	0.7	0.728	0.719
100 µM, coculture fibroblast: H6076	0.869	0.816	0.803	0.777	0.715	0.685	0.675	0.675	0.689
100 µM, coculture fibroblast: H6231	0.898	0.841	0.811	0.774	0.718	0.689	0.648	0.646	0.623
100 µM, coculture fibroblast: HADF	0.8728	0.8543	0.81544	0.792	0.767	0.7316	0.697	0.6684	0.62879
100 µM, coculture fibroblast: HCFa	0.9005	0.866	0.833	0.7912	0.7396	0.697	0.67	0.646	0.604
100 µM, coculture fibroblast: HCPF	0.861	0.793	0.771	0.759	0.715	0.677	0.66	0.6389	0.6225
100 µM, coculture fibroblast: HHSteC	0.898	0.8875	0.847	0.827	0.777	0.7419	0.6979	0.671	0.624
100 µM, coculture fibroblast: HMF	0.847	0.808	0.792	0.768	0.733	0.696	0.667	0.665	0.64
100 µM, coculture fibroblast: HPFa	0.932	0.931	0.9025	0.8592	0.826	0.781	0.719	0.693	0.652
100 µM, coculture fibroblast: HUF	0.846	0.79	0.781	0.724	0.668	0.648	0.604	0.591	0.576
100 µM, coculture fibroblast: Hs5	0.894	0.864	0.839	0.804	0.772	0.709	0.678	0.6507	0.631
100 µM, coculture fibroblast: Hs27A	0.888	0.8711	0.8583	0.8611	0.82	0.758	0.75449	0.738	0.684
100 µM, coculture fibroblast: Hs343T	0.906	0.848	0.837	0.825	0.753	0.7	0.659	0.6434	0.631
100 µM, coculture fibroblast: WS1	0.745	0.73	0.716	0.699	0.676	0.665	0.628	0.64	0.631
